{"source": "paper PMC6814613", "key": {"[1]": {"biological_target": "T1, Ninjurin 2 (human (endogenous in HT-29, primary human colon cancer cells and human colon cancer tissue)) (UniProt Q9NZG7)", "T1 sequence": "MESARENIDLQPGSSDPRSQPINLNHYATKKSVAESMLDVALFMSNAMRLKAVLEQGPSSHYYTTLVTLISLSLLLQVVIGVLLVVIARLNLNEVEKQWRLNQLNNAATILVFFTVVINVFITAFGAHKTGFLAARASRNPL", "experiment": "co-IP; endogenous NINJ2 precipitated with anti-NINJ2 antibody plus protein IgA/G beads from 1000 μg lysate of HT-29 cells or primary human colon cancer cells (pri-Can-1); bound RTKs detected by Western blotting"}, "[2]": {"biological_target": "T1, Ninjurin 2 (human (endogenous in HT-29, primary human colon cancer cells and human colon cancer tissue))", "experiment": "co-IP; endogenous NINJ2 precipitated with anti-NINJ2 antibody plus protein IgA/G beads from fresh human colon cancer tissue lysates (patients 1-3); bound RTKs detected by Western blotting"}}, "note": "No constants are given. Whether binding was seen depends on the method and setting. In cells and extracts the contact can be indirect. Binding calls can cover weak binding; strength is not graded here."}
{"substance": "fibroblast growth factor receptor", "values": [{"measurement": "binding", "setting": "[1]", "value": "binds"}, {"measurement": "binding", "setting": "[2]", "value": "binds"}]}
